According to PMC7819943, “Rice protein-binding microarrays: a tool to detect cis-acting elements near promoter regions in rice”:
The other results are listed elsewhere or left out.

Protein sequences, listed by entry. Tags and fused reporters are not part of them.
UniProt Q0JBA9, entry or part of it: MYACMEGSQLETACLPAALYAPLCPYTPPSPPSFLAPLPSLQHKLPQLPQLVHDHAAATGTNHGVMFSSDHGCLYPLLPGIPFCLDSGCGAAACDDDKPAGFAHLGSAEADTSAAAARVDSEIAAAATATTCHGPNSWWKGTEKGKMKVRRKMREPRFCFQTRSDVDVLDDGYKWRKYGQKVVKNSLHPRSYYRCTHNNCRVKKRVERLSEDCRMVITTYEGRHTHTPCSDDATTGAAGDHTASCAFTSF

target: OsWRKY34 (Oryza sativa, UniProt Q0JBA9 1-250); assay: protein-binding microarray (RPBM); PBS, 2% BSA, 51.3 ng/ul salmon testes DNA, 50 uM zinc acetate, 200 nM TF, 25 C, 1 h; high values mean tight binding; settings: protein: recombinant; tags: N-terminal polyhistidine and DsRed monomer fusion (pET32a); label: CyDye5-dUTP incorporated in the synthesized complementary strand; 3' TTTTT single-stranded linker to array surface; dsDNA, one strand shown
Method in brief: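 Per-feature fluorescence intensity (arbitrary units), read on an Axon 4000B scanner, is the binding signal. Transcription factors carrying an N-terminal polyhistidine tag and DsRed fusion were expressed in E. coli BL21-CodonPlus and purified on Ni–NTA. A custom Agilent array, made double-stranded by primer extension with Cy5-dUTP and blocked with 2% BSA, was incubated with 200 nM protein in PBS, 2% BSA, salmon testes DNA and 50 µM zinc acetate at 25 °C for 1 h and then washed.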

Sequence | binding signal
TGCTGCCATGCTTCTATTTCATTTATATTTATTGCAGTATCGGAGTCACCTAGTGCAG | 10800 fluorescence intensity (a.u.)
AACAATCTTCACTAGAATTCATGTGCTGGCTTTATATTTGCGGAGTCACCTAGTGCAG | 9270 fluorescence intensity (a.u.)
AACTCATCTGACAGTGATCCATCGTCCTTTTTCTTTGACTCGGAGTCACCTAGTGCAG | 10100 fluorescence intensity (a.u.)
TTTCGTTTCCGTTTCTTGCGCCTCCTCCAACCGCGGCGGCCGGAGTCACCTAGTGCAG | 9210 fluorescence intensity (a.u.)
GCCGCGCACGCCGTCATCTCTTTTTCGTTCCATACTTCTCCGGAGTCACCTAGTGCAG | 10700 fluorescence intensity (a.u.)
TCCGCCACCACCGTCGCTCGATCCGTCGCCGCTGTCTCGACGGAGTCACCTAGTGCAG | 10400 fluorescence intensity (a.u.)
TCCCCGACAGATCGATCCAATTCGCATCATCGCATCACACCGGAGTCACCTAGTGCAG | 8930 fluorescence intensity (a.u.)
TTCTTTCGTAAGATCTTTGTGCTCTCTTGGCCTAGTGTTACGGAGTCACCTAGTGCAG | 10500 fluorescence intensity (a.u.)
TTTACTCTTTTACATGCTGGGATTATCTCTTCTTCACCTGCGGAGTCACCTAGTGCAG | 8230 fluorescence intensity (a.u.)
ATTGTTCTTCAGATTGCTTTCGTTCTTTAAACAAATCTTCCGGAGTCACCTAGTGCAG | 10300 fluorescence intensity (a.u.)
ATGCATGCCATCATCGGAATCAAACATTCTGCATTTCTCTCGGAGTCACCTAGTGCAG | 8390 fluorescence intensity (a.u.)
GCTCCCGTAACCGCGCCGCCGCAGCCTCCGCCTCCGCGCGCGGAGTCACCTAGTGCAG | 10100 fluorescence intensity (a.u.)
TTCATAGTTCTGAAGTTGCTATTTTTTGTGTTCCAACCTTCGGAGTCACCTAGTGCAG | 10600 fluorescence intensity (a.u.)
AATCCTCCATGACTCGAGTCTCTCCTCGGATTAGGATCTACGGAGTCACCTAGTGCAG | 9360 fluorescence intensity (a.u.)
CAGTGAACTTATTCCTCACGTGAACCGGTCTTAGATTTCGCGGAGTCACCTAGTGCAG | 9680 fluorescence intensity (a.u.)
GTACTGCCATTAATCCCGATTTGTCCTTATTTATCTGTTTCGGAGTCACCTAGTGCAG | 11600 fluorescence intensity (a.u.)
GTGTGCTTATTCTTGTCCGTATTGTCATTGACTTGTCAACCGGAGTCACCTAGTGCAG | 8890 fluorescence intensity (a.u.)
ATGCGTGCGCTCAGCCCATTCTGCTTGTATTTTCAGTACACGGAGTCACCTAGTGCAG | 11300 fluorescence intensity (a.u.)
TTCCTATCAGAATCCTATATTTTTCCTATTCCTCTGTTTTCGGAGTCACCTAGTGCAG | 8060 fluorescence intensity (a.u.)
AGCTTCACTTGTGCTCCACTGCAACCAGTACACCACATTACGGAGTCACCTAGTGCAG | 10400 fluorescence intensity (a.u.)
TTTTCCTTTCACTTTTGTTTTTGTTTTTCATGTAGTATGACGGAGTCACCTAGTGCAG | 10100 fluorescence intensity (a.u.)
GGGTGCATTTTTCTCCCTTCCTCATGATAAGCTGGGCCTTCGGAGTCACCTAGTGCAG | 8130 fluorescence intensity (a.u.)
AACATGCCGACACTGTAAGCTACTATATAAGTTTCTCCAACGGAGTCACCTAGTGCAG | 8730 fluorescence intensity (a.u.)
AATTTGCTTATTATGCCTTGTTAGGTTCATTCTTTGAATACGGAGTCACCTAGTGCAG | 8940 fluorescence intensity (a.u.)
AGTTTGACCTTTTCATGTCATGAATTTTTTTTAAAAAAATCGGAGTCACCTAGTGCAG | 9400 fluorescence intensity (a.u.)
CGCTATCACCGTGCGACACCGTGCGGTCTCACGCTGTCATCGGAGTCACCTAGTGCAG | 9510 fluorescence intensity (a.u.)
GCTCACTCACTCTGCTGGCAGCTTCCCCTAGGTTGTCCTTCGGAGTCACCTAGTGCAG | 13500 fluorescence intensity (a.u.)

Individual results from the list:
binding signal, TTCTTTCGTAAGATCTTTGTGCTCTCTTGGCCTAGTGTTACGGAGTCACCTAGTGCAG reads 10500 fluorescence intensity (a.u.)
binding signal, TCCCCGACAGATCGATCCAATTCGCATCATCGCATCACACCGGAGTCACCTAGTGCAG reads 8930 fluorescence intensity (a.u.)
binding signal, AATCCTCCATGACTCGAGTCTCTCCTCGGATTAGGATCTACGGAGTCACCTAGTGCAG reads 9360 fluorescence intensity (a.u.)

Continuation.

Sequence | binding signal
CTGTTTGCGCCATACTCTTGTTTGTGCACTAGATCTTCTTCGGAGTCACCTAGTGCAG | 10800 fluorescence intensity (a.u.)
GGCACCGGTCAGATCAGTTTGACTCCGTTTCCGTCCCCACCGGAGTCACCTAGTGCAG | 11200 fluorescence intensity (a.u.)
CGCGATCCGCCTCCGCCTCGAGCCCAAACCCACCCACCAACGGAGTCACCTAGTGCAG | 8300 fluorescence intensity (a.u.)
ACTTCTTCTACGTGATTTCCTGATTCGCCTCATCCGCTTCCGGAGTCACCTAGTGCAG | 9060 fluorescence intensity (a.u.)
ATCGTCATAGTCTTCGTCAGACTTCTATCTCGATCGCTTTCGGAGTCACCTAGTGCAG | 11700 fluorescence intensity (a.u.)
GCTTTGAGTGTGACTACAGTGTCTGCTACTCCTACTACTCCGGAGTCACCTAGTGCAG | 10400 fluorescence intensity (a.u.)
CCGTATACGTCAAACTTTTTTTTTTTTGCCAAAACATCTACGGAGTCACCTAGTGCAG | 8530 fluorescence intensity (a.u.)
GTCATCTTTGTTTGAGTCGGTTTTTAATTTTGTTTGCTTTCGGAGTCACCTAGTGCAG | 17700 fluorescence intensity (a.u.)
CGGCGCCTCCTCGCCCTCGCGCCGCCCGCCGTGTGCCATGCGGAGTCACCTAGTGCAG | 8940 fluorescence intensity (a.u.)
TACTAATTTCCTTCGCACATCCAGCAATCAGATATCCTGACGGAGTCACCTAGTGCAG | 9760 fluorescence intensity (a.u.)
CGTCACTTTTTTTTCTCCCCTATTTCTTTTCTCCTTTTCTCGGAGTCACCTAGTGCAG | 10900 fluorescence intensity (a.u.)
CCGCACCGTATCCTGCCCAATCTCGTTCACCCCTTCACGACGGAGTCACCTAGTGCAG | 11300 fluorescence intensity (a.u.)
TGTGAGGTGGGGTCGGGGTGGAAGTGGGTGAGGAGGGGTGCGGAGTCACCTAGTGCAG | 21700 fluorescence intensity (a.u.)
TTACTTCAGGTTGGGTTTGCTGCTGTCGATGTGCTTATCTCGGAGTCACCTAGTGCAG | 12500 fluorescence intensity (a.u.)
CAGCTCAATATTTTTGTACTTCATTTATTCTGCTTTAAACCGGAGTCACCTAGTGCAG | 9540 fluorescence intensity (a.u.)
TACCTCTTGATGCTTATCTGGTTTGTTTTTTTTCCTTTTCCGGAGTCACCTAGTGCAG | 8140 fluorescence intensity (a.u.)
TTGAACCCTGCTCTCAGCTGAGCACCATGCAATAACTGTCCGGAGTCACCTAGTGCAG | 8270 fluorescence intensity (a.u.)
GGGGCTGTTTGGTTTCCAGGGACTTATTCCAAGTCCCTGTCGGAGTCACCTAGTGCAG | 9750 fluorescence intensity (a.u.)
CTACTCTACTGACTTGCACATGTACTGTACGTTCTCTTTGCGGAGTCACCTAGTGCAG | 9050 fluorescence intensity (a.u.)
GCACGCTGTTGCAGTGCTCTGCGCCTCTGCATCTCCTTCTCGGAGTCACCTAGTGCAG | 8230 fluorescence intensity (a.u.)
CTCTGTTCACCAGTCCGTCGGTTCGATCGGCGATCAAACTCGGAGTCACCTAGTGCAG | 8510 fluorescence intensity (a.u.)
TGACTTATATGATTATGTTTTATGTTGAATTATTGACCGTCGGAGTCACCTAGTGCAG | 8200 fluorescence intensity (a.u.)
ATTCTCTGTTTTACACTTATATTCCTGTCAGAATTCTATACGGAGTCACCTAGTGCAG | 10200 fluorescence intensity (a.u.)
TCTTCTTATAAACCCTAACTCCAGTAACATTTTAAGCTTTCGGAGTCACCTAGTGCAG | 8840 fluorescence intensity (a.u.)
CCATGCTCGCGGCGTTTACTTTCCTCACTATTTTTTAGATCGGAGTCACCTAGTGCAG | 9410 fluorescence intensity (a.u.)
CCGCCCCGGACCCGTCGCCAAACCCTGCCGCCGAGCACTCCGGAGTCACCTAGTGCAG | 9020 fluorescence intensity (a.u.)
CCAACCCACTCCCGTCATCGCCACCTCATCCACAGCCATGCGGAGTCACCTAGTGCAG | 8840 fluorescence intensity (a.u.)
